According to patent US10507212B2, “Method for use of homopiperazinium compounds in the treatment of cancer” (UNIVERSITÉ LAVAL, priority 2014, dated 2019):

Experiments:
[1] = test system: A549 adenocarcinoma cell line; assay: Cell proliferation assay, A549 (MTT); conditions: A549, day 3 and day 6, text on figures
Experimental: (§1) In vitro experiments were conducted on four cancer cell lines: the A549 adenocarcinoma cell line, the H520 squamous cell carcinoma the H82 small cell lung carcinoma and Calu 3 lung adenocarcinoma. The A549 tumor cells, were plated at a density of 1.5×10^4 cells per mL and let to adhere on 96-well microplates in F12K cell culture medium enriched with 10% fetal calf serum (FCS). The H520, H82 and Calu 3 tumor cells were plated at a density of 5×10^4 cells per mL in RPMI+10% FCS. After 24 h in culture, the medium was changed and cells were exposed to ASM-024 at concentrations ranging from 10^−7M to 10^−3M (FIGS. 1A-1C). After 3 and 6 days in culture, cell growth was quantified using the MTT colorimetric assay (M2128, Sigma) at 575-690 nm or the Cell Titer fluorescence assay (G8080, Promega) at 560/590 nm.
(§2) In an another set of experiments, a series of 16 other homopiperazinium compounds, in addition to ASM-024, were tested for their anti-proliferative effect on the four tumor cell lines described above after up to 6 days in culture at concentrations of 10^-7M to 10^-3M. (FIGS. 4A-4E) Cell growth was quantified using the MTT colorimetric assay for the A-549, H520 and Calu 3 cell lines and the CellTiter Fluorescence assay.for the H82 tumor cell line These are established method of determining viable cell number in proliferation studies.

[2] = test system: H520 squamous cell carcinoma; assay: Cell proliferation assay, H520 (MTT); assay type: cell-based; conditions: H520, day 3 and day 6, text on figures
Experimental: as §1, §2

[3] = test system: H82 small cell lung carcinoma; assay: Cell proliferation assay, H82 (CellTiter fluorescence); assay type: cell-based; conditions: H82, day 3 and day 6, text on figures
Experimental: as §1, §2

Measured: cell proliferation / cell growth inhibition (in words)

CC(C)[N+]1(C)[C@@H]2CC[C@H]1C[C@@H](OC(=O)C(CO)c1ccccc1)C2 (stereo partly drawn) [ipratropium, reference compound]
no significant cell growth inhibition: all assays above
